The values below come from patent publication US20140121131A1.

In this assay the target is biotinylated His6-GFP [GFP: P42212]. Nature of the assay: phage capture on streptavidin Dynal beads labelled with biotinylated His6-GFP.

Results are given in words; binding and its absence hold for the method and conditions named. Some binding calls cover weakened binding; strength is not graded here. Sequences can lack the tags named with a protein.

B1: αGFP::I27::gpL fusion protein (VHH)
chain: MGDGMQVQLVESGGALVQPGGSLRLSCAASGFPVNRYSMRWYRQAPGKEREWVAGMSSAGDRSSYEDSVKGRFTISRDDARNTVYLQMNSLKPEDTAVYYSNVNVGFEYWGQGTQVTVSSNSSSQTSLIEVEKPLYGVEVFVGETAHFEIELSEPDVHGQWKLKGQPLTASPDCEIIEDGKKHILILHNCQLGMTGEVSFQAANAKSAANLKVKELNSSSDYKDDDDKGNGTLIIPRKEAPVSGEGTVVIPQPAGDEPVIKNTFFFPDIDPKRVRERMRLEQTVAPARLREAIKSGMAETNAELYEYREQKIAAGFTRLADVPADDIDGESIKVFYYERAVCAMATASLYERYRGVDASAKGDKKADSIDSTIDELWRDMRWAVARIQGKPRCIVSQI
B1: the binding result is “binds”.
